Results are given in words; binding and its absence hold for the method and conditions named. Binding seen in cells or lysates may run through a third protein. A yes stands for co-enrichment or nearness to the bait. Other partners may have been found.

Sequences of proteins named here, by UniProt entry; tags and fusion partners are left off. A change or cut given only in a name is not applied to a line headed by its entry.
UniProt P06756: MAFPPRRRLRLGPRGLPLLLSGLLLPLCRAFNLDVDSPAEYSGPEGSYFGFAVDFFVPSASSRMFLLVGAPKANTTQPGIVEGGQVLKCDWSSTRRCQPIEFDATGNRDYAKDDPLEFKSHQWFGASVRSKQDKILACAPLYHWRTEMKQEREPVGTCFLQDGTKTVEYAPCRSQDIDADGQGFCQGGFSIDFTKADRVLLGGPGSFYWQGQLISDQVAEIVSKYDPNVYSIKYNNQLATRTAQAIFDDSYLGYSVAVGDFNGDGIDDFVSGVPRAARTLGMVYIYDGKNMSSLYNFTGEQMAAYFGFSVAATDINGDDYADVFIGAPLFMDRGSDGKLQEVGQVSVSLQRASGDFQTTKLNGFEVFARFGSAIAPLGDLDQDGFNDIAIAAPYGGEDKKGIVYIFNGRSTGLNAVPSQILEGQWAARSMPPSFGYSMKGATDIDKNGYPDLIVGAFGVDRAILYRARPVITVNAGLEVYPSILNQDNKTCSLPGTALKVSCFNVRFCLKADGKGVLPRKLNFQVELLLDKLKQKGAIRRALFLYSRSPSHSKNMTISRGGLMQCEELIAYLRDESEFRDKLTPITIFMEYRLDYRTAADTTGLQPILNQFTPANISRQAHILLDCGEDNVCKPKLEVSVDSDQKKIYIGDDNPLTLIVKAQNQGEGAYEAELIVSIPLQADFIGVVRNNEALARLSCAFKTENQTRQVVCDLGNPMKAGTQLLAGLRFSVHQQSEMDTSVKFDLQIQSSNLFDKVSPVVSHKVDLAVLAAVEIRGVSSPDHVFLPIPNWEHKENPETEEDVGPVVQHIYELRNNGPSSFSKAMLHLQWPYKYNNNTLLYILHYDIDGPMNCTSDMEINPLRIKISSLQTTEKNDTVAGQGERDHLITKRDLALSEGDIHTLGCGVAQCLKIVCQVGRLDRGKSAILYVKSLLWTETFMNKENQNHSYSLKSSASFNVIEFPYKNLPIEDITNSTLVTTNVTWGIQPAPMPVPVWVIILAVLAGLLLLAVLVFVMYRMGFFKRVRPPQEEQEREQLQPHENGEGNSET
UniProt P62491: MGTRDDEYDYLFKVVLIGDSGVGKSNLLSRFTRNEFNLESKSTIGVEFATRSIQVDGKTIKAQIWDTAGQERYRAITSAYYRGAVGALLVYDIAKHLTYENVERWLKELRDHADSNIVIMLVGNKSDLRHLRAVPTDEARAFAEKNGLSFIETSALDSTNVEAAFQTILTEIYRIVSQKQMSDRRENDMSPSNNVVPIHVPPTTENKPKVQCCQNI
UniProt P20340: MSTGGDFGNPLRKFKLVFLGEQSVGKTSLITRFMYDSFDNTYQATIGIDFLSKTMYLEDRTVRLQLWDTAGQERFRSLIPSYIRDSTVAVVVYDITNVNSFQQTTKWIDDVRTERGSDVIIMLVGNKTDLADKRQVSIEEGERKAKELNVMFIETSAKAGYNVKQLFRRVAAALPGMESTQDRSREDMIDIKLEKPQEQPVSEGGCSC
UniProt P51149: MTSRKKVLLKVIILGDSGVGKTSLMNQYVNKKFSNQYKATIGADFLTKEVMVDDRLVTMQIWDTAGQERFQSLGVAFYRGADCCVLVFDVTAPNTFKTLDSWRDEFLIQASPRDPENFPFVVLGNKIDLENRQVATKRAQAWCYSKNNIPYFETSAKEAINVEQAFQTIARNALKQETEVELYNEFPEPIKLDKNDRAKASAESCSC

The assay concerns the target αVβ6 integrin (human (endogenous in BT474 and HER2-18)) (UniProt P06756). Put plainly: affinity purification with mass spectrometry; integrin-associated adhesion complexes (IACs) isolated from HER2-18 or BT474 cells plated 2.5 h on LAP (compared with Coll-I or FN), cross-linked with 3 mM DTBP, cell bodies removed, label-free MS; also BT474 trastuzumab-sensitive cells with or without 96 h trastuzumab (10 μg/ml) on LAP.

As to RAB11A (from UniProt P62491 1-216), the binding entry was “binds”.

Consider RAB6A (from UniProt P20340 1-208), for which the binding entry was “binds”.

For the substance RAB7A (from UniProt P51149 1-207), the binding entry is listed as “binds”.

Source of the values: publication PMC11616693.
